Assay results from PubChem BioAssay AID190 (DTP/NCI, 2004).
The list is a part of this screen's results and no random one: it gathers tests that were run many times, whatever their T/C, doses with no T/C, and many T/C values between a quarter and a half above the control. Other doses and runs of a compound stand elsewhere. T/C: endpoint of the treated group in % of that of the vehicle group. Some entries give survivors of the animals treated and no T/C: the source files T/C as zero there, which appears to mark a toxic dose or a test without result, not a measured value. Some doses without a T/C left all or most animals alive at the check, yet need not have been tolerated: the source hardly ever lists a survival T/C far under the control, and the zero likely stands for such cases as well. Survivors were counted at the toxicity check, usually on the fifth day, unless a day is given; later deaths do not show. Schedules are NCI's codes, taken here to give the interval after Q, in days (D) or hours (H), and the number of doses after X. Where survival is the endpoint, this PubChem deposit counts one and a half times the control or more as active, and values a quarter to a half above the control carry no call in these data; other NCI protocols may use other cut-offs. Some T/C values carry the count of animals alive at the toxicity check (mostly the fifth day); without a count, all were alive then.

Test system: AKR/Lw mice, AKR lymphoma ip, median survival T/C
Assay: NCI In Vivo Anticancer Drug Screen. Data for tumor model Lymphoma AKR (Transplanted) (intraperitoneal) in AKR/Lw mice
Details: T/C endpoint: median survival time, higher T/C = longer survival
Description: The antitumor activity of compounds was measured in mice bearing transplantable tumors. Survival or tumor size were measured and the results are expressed as the measurement made in the treated group (T) divided by the measurement made in the vehicle treated control group (C). The tumor model used in this assay is Lymphoma AKR (Transplanted) (intraperitoneal) in AKR/Lw mice

COc1cc2c(c3c1c(=O)c1ccccc1n3C)C=CC(C)(C)O2
survivor count (dose: 125.0 mg/kg/injection, schedule: Q01DX010 (ip), vehicle: Klucel (hydroxypropylcellulose) (HPC)): 10 of 10 | T/C (dose: 200.0 mg/kg/injection, schedule: Q04DX003 (ip), vehicle: Klucel (hydroxypropylcellulose) (HPC)): 125 % of control | survivor count (dose: 250.0 mg/kg/injection, schedule: Q01DX010 (ip), vehicle: Klucel (hydroxypropylcellulose) (HPC)): 9 of 10 | survivor count (dose: 250.0 mg/kg/injection, schedule: Q03HX024 (ip), vehicle: Klucel (hydroxypropylcellulose) (HPC)): 6 of 10 | survivor count (dose: 500.0 mg/kg/injection, schedule: Q01DX010 (ip), vehicle: Klucel (hydroxypropylcellulose) (HPC)): 0 of 10 | T/C (dose: 540.0 mg/kg/injection, schedule: Q04DX003 (ip), vehicle: Klucel (hydroxypropylcellulose) (HPC)): 125 % of control | T/C (dose: 800.0 mg/kg/injection, schedule: Q04DX003 (ip), vehicle: Klucel (hydroxypropylcellulose) (HPC)): 127 % of control [9 of 10 alive]

O=C1CSC(=S)N1c1ccco1
survivor count (dose: 400.0 mg/kg/injection, schedule: Q01DX001 (ip), vehicle: Klucel (hydroxypropylcellulose) (HPC)): 10 of 10

c1ccc2c(c1)OCCOCCOc1ccccc1OCCOCCO2
survivor count (dose: 100.0 mg/kg/injection, schedule: Q04DX003 (ip), vehicle: other): 9 of 10 | survivor count (dose: 200.0 mg/kg/injection, schedule: Q04DX003 (ip), vehicle: other): 10 of 10 | survivor count (dose: 400.0 mg/kg/injection, schedule: Q04DX003 (ip), vehicle: other): 8 of 10
